Results are given in words; binding and its absence hold for the method and conditions named.
Key:
activated Factor IX [1] = assay: direct ELISA, antigen coated
activated Factor VII [2] = assay: direct ELISA, antigen coated
activated Factor X [3] = assay: direct ELISA, antigen coated
activated Factor IX [4] = assay: direct ELISA, FIXa coated at 5 ug/ml, Fab at 20 nM, anti-human Fab-HRP, AmplexRed (RFU)
activated Factor X [5] = assay: direct ELISA, FXa coated at 10 ug/ml, Fab at 20 nM, anti-human Fab-HRP, AmplexRed (RFU)
activated Factor VII [6] = assay: direct ELISA, FVIIa coated at 10 ug/ml, Fab at 20 nM, anti-human Fab-HRP, AmplexRed (RFU)

Measured: binding

B1: C26B9 Fab (Fab, V domains shown)
VH: EVQLLESGGGLVQPGGSLRLSCAASGFTFSSYGMHWVRQAPGKGLEWVSVIYSGGSTYYADSVKGRFTISRDNSKNTLYLQMNSLRAEDTAVYYCARMGRAFDIWGQGTLVTVTS
VL: QSVLTQPPSASGTPGQRVTISCSGSSSNIRSNTVNWYQQLPGTAPKLLIYGNSNRPSGVPDRFSGSKSGTSASLAISGLRSEDEADYYCQSYDSSLSGDVVFGGGTKLTVLG
notes: Human Fab (lambda) from a phage library, expressed in E. coli
no binding (tested: 20 nM): all assays above

B2: R41C17 Fab (Fab, V domains shown)
VH: EVQLLESGGGLVQPGGSLRLSCAASGFTFSNYAMSWVRQSPGKGLEWVAVISYDGREKYYSDSVKGRFTISRDNSKNTLYLQMNSLRAEDTAVYYCARDRGRTFDYWGQGTLVTVTS
VL: LTQPPSASGTPGQRVTISCTGSSSNIGAGYVVHWYQQLPGTAPKLLIYRNNHRPSGVPDRFSGSKSGTSASLAISGLRSEDEADYYCAAWDDSLNGRVFGGGTKLTVLG
notes: Human Fab (lambda), expressed in E. coli; also called R4117
no binding (tested: 20 nM): all assays above

B3: C22J13 Fab (Fab, V domains shown)
VH: EVQLLESGGGLVQPGGSLRLSCAASGFTFSSNYMSWVRQAPGKGLEWVAVISYDGSNKYYADSVKGRFTISRDNSKNTLYLQMNSLRAEDTAMYYCALTGRSGWMRFPNWFDPWGQGTLVTVTS
VL: QSVLTQPPSASGTPGQRVTISCSGSDSNIGSNAVNWYQQLPGTAPKLLIYDNNKRPSGVPDRFSGSKSGTSASLAISGLRSEDEADYYCSSYTSSNTVVFGGGTKLTVLG
notes: as for B1
no binding (tested: 20 nM): all assays above

B4: R41E3 Fab (Fab, V domains shown)
VH: EVQLLESGGGLVQPGGSLRLSCAASGFTFNNYAMTWVRQAPGKGLEWVSGVSWNGSRTHYADSVKGRFTISRDNSKNTLYLQMNSLRAEDTAVYYCARADSSSAGRWAGSLDYWGQGTLVTVTS
VL: LTQPPSASGTPGQRVTISCSGSSSNIGNNAVNWYQQLPGTAPKLLIYSNNQRPSGVPDRFSGSKSGTSASLAISGLRSEDEADYYCSSYTSSSTHVVFGGGTKLTVLG
notes: Human Fab (lambda), expressed in E. coli
no binding (tested: 20 nM): all assays above

B5: T46P19 Fab (Fab, V domains shown)
VH: EVQLLESGGGLVQPGGSLRLSCAASGFTFSGYGMHWVRQAPGKGLEWVSGINWNGGSTGYADSVKGRFTISRDNSKNTLYLQMNSLRAEDTAVYYCARNRATRSGYYYFDSWGQGTLVTVTS
VL: LTQPPSASGTPGQRVTISCTGSSSNIGAGYDVHWYQQLPGTAPKLLIYGNINRPSGVPDRFSGSKSGTSASLAISGLRSEDEADYYCSSYTRSATLVFGGGTKLTVLG
notes: as for B4
no binding (tested: 20 nM): all assays above

From patent publication US20150307625A1 (Bayer, published 2015)
